Assay results published in PubChem BioAssay AID652054 (National Center for Advancing Translational Sciences (NCATS), 2013).
Several values for one entry are separate records, joined by “and”; a condition that tells them apart may be missing. Equal values may be shown once. In all, about 360,000 compounds went through this assay and about 9,100 (2.5%) were called active. Inconclusive results, whose numbers are uncertain, are shown with a selection of clear calls. No stated cut-off is given here; in the data, active means max response below about -50%; inconclusive means no clear call, values can overlap the other calls; inactive means above that.
On the % scale 0 is the no-effect control and ±100 the full control effect.

Chains of the proteins cited; added tags and fusions are not shown.
UniProt P35462, whole entry, looked up: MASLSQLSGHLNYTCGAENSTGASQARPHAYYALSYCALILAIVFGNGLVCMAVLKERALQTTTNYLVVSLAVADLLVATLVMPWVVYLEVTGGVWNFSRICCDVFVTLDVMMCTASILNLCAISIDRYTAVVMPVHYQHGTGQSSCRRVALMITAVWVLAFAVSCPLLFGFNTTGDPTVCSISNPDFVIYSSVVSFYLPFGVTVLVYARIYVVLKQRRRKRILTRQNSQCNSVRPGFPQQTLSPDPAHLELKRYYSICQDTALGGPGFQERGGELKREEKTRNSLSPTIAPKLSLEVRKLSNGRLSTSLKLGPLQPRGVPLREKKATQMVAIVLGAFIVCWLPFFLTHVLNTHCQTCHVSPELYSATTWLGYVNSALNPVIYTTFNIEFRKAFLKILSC

What follows are compounds tested against D(3) dopamine receptor (Homo sapiens) (UniProt P35462) (assay: qHTS of D3 Dopamine Receptor Antagonist: qHTS). Details: D3R cells, DiscoveRx beta-arrestin luminescence, antagonist mode; stronger effect = lower value.
Method in brief: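 Cells expressing the human receptor were seeded at 1500 cells/well, incubated overnight at 37 degrees C in 5% CO2, then exposed to library compounds with dopamine controls for 90 minutes at 37 degrees C before luminescent detection.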
In the case of O=C(NCc1ccccc1)C(c1ccc(C(F)(F)F)cc1)n1c(=O)c(-c2cc3ccccc3[nH]2)nc2ccccc21 (stereo unspecified), the max response, negative = inhibition was inactive: 32.3%.
In the case of O=C(CN1CCCC1)Nc1ccccc1Cl, the max response, negative = inhibition was inconclusive: -43%.
CC(=O)OC(COc1ccccc1)Cn1cnc2ccccc21 (stereo unspecified) was tested, and the max response, negative = inhibition was inactive: 0.0068%.
With COc1ccccc1-c1sc2ccccc2c1-c1ccc(OCCN2CCCCC2)cc1 the max response, negative = inhibition was inconclusive: -30.4%.
In the case of CC1=NN(c2ccc(S(=O)(=O)O)cc2C)C(=O)C1, the max response, negative = inhibition was inconclusive: -47.1%.
In the case of O=C1OC(c2ccc3ccccc3c2O)(c2ccc3ccccc3c2O)c2ccccc21, the max response, negative = inhibition was inconclusive: -33.8%.
In the case of COc1ccc(C(=O)c2c(C(F)(F)F)oc3c2C(=O)c2ccccc2C3=O)cc1, the max response, negative = inhibition was inconclusive: -41.1%.
In the case of COc1ccc(OC)c(NC(=O)CSc2nnc(Cc3cccn3C)n2CCc2ccccc2)c1, the max response, negative = inhibition was inactive: -17.9%.
With CCN(CC)CCCNC1=C(Cl)C(=O)c2ccccc2C1=O the max response, negative = inhibition was inconclusive: -30.7%.
With O=C(COc1ccccc1[N+](=O)[O-])N/N=C/c1ccc(O)cc1 the max response, negative = inhibition was inconclusive: -35.5%.
With CC1CC(C)CN(CCCNC(=O)c2nn(C)c3c2CS(=O)(=O)c2ccccc2-3)C1 (stereo unspecified) the max response, negative = inhibition was inactive: -19.1%.
For COc1ccc(/C(=N\O)c2ncc(C(F)(F)F)cc2Cl)cc1, the max response, negative = inhibition was inconclusive: -44.8%.
With O=C(CNS(=O)(=O)c1c(Cl)cccc1Cl)OCc1csc(-c2ccccc2)n1 the max response, negative = inhibition was inactive: 9.21%.
For NC(=O)c1ccc(NC(=O)CSC(=O)c2ccccc2)cc1, the max response, negative = inhibition was inconclusive: -40.2%.
With CCN1/C(=C2\SC(=S)N(Cc3ccccc3)C2=O)Sc2ccccc21 the max response, negative = inhibition was inactive: 7.77%.
In the case of COc1ccc(S(=O)(=O)Nc2ccccc2C(=O)NCc2ccco2)cc1, the max response, negative = inhibition was inconclusive: -32%.
O=C(O)CC1S/C(=N/N=C/C2CC=CCC2)NC1=O (stereo unspecified) was tested, and the max response, negative = inhibition was inconclusive: -31.1%.
CCC(=O)N1c2ccc(S(=O)(=O)NC3CCCCC3)cc2CC1C (stereo unspecified) was tested, and the max response, negative = inhibition was inactive: -6.49%.
In the case of CCCCC(=O)C1CCN(Cc2ccccc2)CC1, the max response, negative = inhibition was inconclusive: -33.9%.
CCOC(=S)SCC(=O)Nc1nc(C)c(C)s1 was tested, and the max response, negative = inhibition was inconclusive: -32.2%.
In the case of COC(=O)c1c(NC(=O)C(C)C)sc2c1C(C(=O)OC)CC2 (stereo unspecified), the max response, negative = inhibition was inconclusive: -30.3%.
With COCCNC(=O)c1ccccc1NC(=O)c1ccccc1N(C)S(=O)(=O)c1ccc(C)cc1 the max response, negative = inhibition was inconclusive: -39.5%.
Cc1c(C2Nc3ccccc3NC3=C2C(=O)CC(C)(C)C3)cnn1C (stereo unspecified) was tested, and the max response, negative = inhibition was active: -70.8%.
With CC(C)c1cc(Cn2c3ccccc3c(=O)n2C(C)Cn2cc(C3CC3)nn2)on1 (stereo unspecified) the max response, negative = inhibition was inactive: 0.832%.
In the case of N#Cc1c(-c2ccco2)nc(SCC(=O)Nc2cccc(Cl)c2)[nH]c1=O, the max response, negative = inhibition was inactive: -23.4%.
For Cc1ccc(C)c(OCc2cc(C(=O)N(C)Cc3nccn3C)no2)c1, the max response, negative = inhibition was inconclusive: -30.3%.
With O=C(O)CCc1ccc(-c2cccs2)n1CC1CCCO1 (stereo unspecified) the max response, negative = inhibition was inactive: 9.07%.
In the case of COC(=O)[C@@H]1CCCN1C(=O)CCc1nnc(CCC2CCCCC2)o1, the max response, negative = inhibition was inactive: -11.3%.
For Nc1nonc1-n1nnc(C(=O)N/N=C/c2ccoc2)c1CSc1ccc(Cl)cc1, the max response, negative = inhibition was inactive: -6.68%.
For Cc1ccc2c(c1)c1c3n2CCN(C(=O)CN2CCN(C)CC2)C3CCC1 (stereo unspecified), the max response, negative = inhibition was inconclusive: -46.5%.
With CN(C)c1ccc(NC(=O)Cn2c(=O)n(Cc3ccccc3)c(=O)c3ccccc32)cc1 the max response, negative = inhibition was inconclusive: -37.7%.
With COCCCNc1ccn2nc(-c3ccc(CC(C)C)cc3)cc2n1 the max response, negative = inhibition was inactive: 31.5%.
For CCN(CC)S(=O)(=O)c1ccc(OC)c(NC(=S)Nc2ccc(C)c(C)c2)c1, the max response, negative = inhibition was inactive: -7.07%.
In the case of Cc1ccccc1NC(=S)N(CCN1CCCCCC1)Cc1cccs1, the max response, negative = inhibition was inconclusive: -37.8%.
With Nc1nnc(SCC(=O)OCC(=O)c2ccccc2Br)s1 the max response, negative = inhibition was active: -58.4%.
In the case of CCN(CC)Cc1cc(NC2=NS(=O)(=O)c3ccccc32)ccc1OC(=O)C(C)C, the max response, negative = inhibition was inconclusive: -43.4%.
O=C(Cc1ccccc1Cl)NC1(O)C(=O)c2ccccc2C1=O was tested, and the max response, negative = inhibition was inconclusive: -31.8%.
Cc1ccc(S(=O)(=O)N(C)CC(=O)N2CCc3ccccc32)cc1 was tested, and the max response, negative = inhibition was inconclusive: -33%.
In the case of CCOc1ccc(OCC)c(NC(=O)C2CCN(c3nn4c(=O)cc(C)nc4s3)CC2)c1, the max response, negative = inhibition was inconclusive: -32.7%.
In the case of Cc1ccccc1N1CCN(CCCN2C(=O)CC(=C(c3ccccc3)c3ccccc3)C2=O)CC1, the max response, negative = inhibition was inconclusive: -43.7%.
Cc1ccc(NC(=S)NNC(=O)CCn2cc(C)cn2)cc1 was tested, and the max response, negative = inhibition was inconclusive: -44.8%.
In the case of Cc1cc(C)c(CN2CCN(C(=O)CC[C@H]3O[C@@H](n4ccc(=O)[nH]c4=O)[C@H](O)[C@@H]3O)CC2)c(C)c1, the max response, negative = inhibition was active: -68.5%.
For CCOc1ccc(C2C(C#N)=C(N)SC(N)=C2C#N)cc1OCC, the max response, negative = inhibition was inconclusive: -39.3%.
With CCN(CC)CCCC(C)NC(=O)c1c(NC(=O)c2ccccc2)sc2c1CCCC2 (stereo unspecified) the max response, negative = inhibition was inactive: -8.4%.
For CC(=O)Nc1cc[n+](C(C)C(=O)c2ccccc2)cc1 (stereo unspecified), the max response, negative = inhibition was inconclusive: -31.9%.
For S=C(Nc1cc(Cl)ccc1Oc1ccccc1)N1CCN(c2ccccn2)CC1, the max response, negative = inhibition was inactive: 6.83%.
For CC1(C)Cc2c(sc3nc(N/N=C/c4ccccc4)[nH]c(=O)c23)CO1, the max response, negative = inhibition was inconclusive: -37.6%.
For S=C(c1ccc(N2CCOCC2)cc1)N1CCCCC1, the max response, negative = inhibition was inconclusive: -38.9%.
With COc1ccc(-c2cnc(C(O)c3ccc(CN4CCCCC4)cc3)[nH]2)cc1 (stereo unspecified) the max response, negative = inhibition was inconclusive: -35.5%.
In the case of OCCN1CCN(CC(O)COc2ccc3ccccc3c2)CC1 (stereo unspecified), the max response, negative = inhibition was inconclusive: -33.5% and inconclusive: -36.8%.
For COc1ccc(Br)cc1[C@H]1[C@H]2C=CC[C@@H](C)[C@@H]2C(=O)N1Cc1ccccc1, the max response, negative = inhibition was inconclusive: -41.1%.
CCc1c(C)nn(C(=O)/C(C#N)=C\N(C)C)c1C was tested, and the max response, negative = inhibition was inactive: 1.44%.
In the case of COC(C/C=C/C(=O)[C@H](C)OCc1ccccc1)OC, the max response, negative = inhibition was inconclusive: -35.3%.
For CC1CC(C)CN(c2oc(-c3ccco3)nc2C#N)C1 (stereo unspecified), the max response, negative = inhibition was inactive: 0.68%.
With C[C@@H](CO)NC(=O)[C@H]1O[C@@H](n2cnc3c(N)ncnc32)[C@H](O)[C@@H]1O the max response, negative = inhibition was inconclusive: -41.2%.
